Article PMC8936486 (PLoS Biology, 2022)
These are yes or no findings as the source states them, for the method shown.

Biological target: nucleotide-devoid, full-length FtsZ from M. jannaschii (Methanocaldococcus jannaschii) (UniProt Q57816)
Test: right angle light scattering; 20 mM EDTA added to polymers of full-length FtsZ formed with GTP and BeF3-; both purified

B1: nucleotide-devoid, full-length FtsZ from M. jannaschii (natural protein, Methanocaldococcus jannaschii, UniProt Q57816 1-364, looked up)
chain: MKFLKNVLEEGSKLEEFNELELSPEDKELLEYLQQTKAKITVVGCGGAGNNTITRLKMEGIEGAKTVAINTDAQQLIRTKADKKILIGKKLTRGLGAGGNPKIGEEAAKESAEEIKAAIQDSDMVFITCGLGGGTGTGSAPVVAEISKKIGALTVAVVTLPFVMEGKVRMKNAMEGLERLKQHTDTLVVIPNEKLFEIVPNMPLKLAFKVADEVLINAVKGLVELITKDGLINVDFADVKAVMNNGGLAMIGIGESDSEKRAKEAVSMALNSPLLDVDIDGATGALIHVMGPEDLTLEEAREVVATVSSRLDPNATIIWGATIDENLENTVRVLLVITGVQSRIEFTDTGLKRKKLELTGIPKI
notes: full-length FtsZ from Methanocaldococcus jannaschii, nucleotide-devoid; also called apo-MjFtsZ; MjFtsZ; source: prepared as reported [55]
binding: no binding (condition: with 20 mM EDTA)
